Experimental data taken from PubChem BioAssay AID248 (DTP/NCI, 2004).
The list is a part of this screen's results and no random one: its compounds were picked by chemical class. Other doses and runs of a compound may be missing. T/C is the treated group as % of the vehicle group. Some entries give survivors of the animals treated and no T/C: the source holds a T/C of zero for them, seemingly a mark for toxic or unscored doses. Some survivor counts are full or nearly so, which does not show that the dose was tolerated: the source hardly ever lists a survival T/C far under the control, and the zero likely stands for such cases as well. Counts of survivors are from the toxicity check (mostly the fifth day) where no day follows; animals may have died later. Schedule codes are those of the source, read here as Q, the interval in days (D) or hours (H), X, the number of doses. Some schedule codes hold Z or #, which are not explained here. For survival time, the PubChem record calls one and a half times the control and up active, and a quarter to a half above the control has no call in these data; cut-offs in other NCI protocols can differ. Some entries were tested several times; their values stand side by side, smallest first. Some T/C values are marked as having no survivor count here; that says nothing about deaths at the dose. Some T/C values are followed by the survivors on the day toxicity was checked, most often the fifth; where neither a count nor a note follows, no animal had died by that day.

Test system: L1210 leukemia ip in BDF1 mice, survival T/C
Test: NCI In Vivo Anticancer Drug Screen. Data for tumor model L1210 Leukemia (intraperitoneal) in B6D2F1 (BDF1) mice
Settings: T/C endpoint: mean survival time, higher T/C = longer survival
[1] = dose: 12.5 mg/kg/injection, schedule: Q04DX003 (ip), vehicle: Klucel (hydroxypropylcellulose) (HPC)
[2] = dose: 100.0 mg/kg/injection, schedule: Q04DX003 (ip), vehicle: saline with Tween-80
[3] = dose: 200.0 mg/kg/injection, schedule: Q04DX003 (ip), vehicle: saline with Tween-80
[4] = dose: 400.0 mg/kg/injection, schedule: Q04DX003 (ip), vehicle: saline with Tween-80
[5] = dose: 100.0 mg/kg/injection, schedule: Q04DX002 (ip), vehicle: saline
[6] = dose: 200.0 mg/kg/injection, schedule: Q04DX002 (ip), vehicle: saline
[7] = dose: 400.0 mg/kg/injection, schedule: Q04DX002 (ip), vehicle: saline
[8] = dose: 50.0 mg/kg/injection, schedule: Q01DX009 (ip), vehicle: saline
[9] = dose: 100.0 mg/kg/injection, schedule: Q01DX009 (ip), vehicle: saline
[10] = dose: 200.0 mg/kg/injection, schedule: Q01DX009 (ip), vehicle: saline

CCc1c(C)c([N+](=O)[O-])c(C)c([N+](=O)[O-])c1[N+](=O)[O-]
T/C (dose: 100.0 mg/kg/injection, schedule: Q01DX009 (ip), vehicle: Klucel (hydroxypropylcellulose) (HPC)): 93 % of control [survivor count not shown] | T/C (dose: 100.0 mg/kg/injection, schedule: Q04DX003 (ip), vehicle: Klucel (hydroxypropylcellulose) (HPC)): 98 % of control [survivor count not shown] | T/C (dose: 200.0 mg/kg/injection, schedule: Q01DX009 (ip), vehicle: Klucel (hydroxypropylcellulose) (HPC)): 98 % of control [survivor count not shown] | T/C (dose: 200.0 mg/kg/injection, schedule: Q04DX003 (ip), vehicle: Klucel (hydroxypropylcellulose) (HPC)): 93 % of control [survivor count not shown] | T/C (dose: 400.0 mg/kg/injection, schedule: Q01DX009 (ip), vehicle: Klucel (hydroxypropylcellulose) (HPC)): 104 % of control [survivor count not shown] | T/C (dose: 400.0 mg/kg/injection, schedule: Q04DX003 (ip), vehicle: Klucel (hydroxypropylcellulose) (HPC)): 100 % of control [survivor count not shown]

NC1CCCCC1.O=P(O)(Nc1ccccc1)N(CCCl)CCCl
T/C (dose: 10.0 mg/kg/injection, schedule: Q01DX Z (ip), vehicle: saline): 90 % of control | T/C (dose: 20.0 mg/kg/injection, schedule: Q01DX Z (ip), vehicle: saline): 95 % of control | T/C (dose: 40.0 mg/kg/injection, schedule: Q01DX Z (ip), vehicle: saline): 88 % of control | T/C (dose: 80.0 mg/kg/injection, schedule: Q01DX Z (ip), vehicle: saline): 90 and 98 % of control | T/C (dose: 160.0 mg/kg/injection, schedule: Q01DX Z (ip), vehicle: saline): 105 % of control | T/C (dose: 320.0 mg/kg/injection, schedule: Q01DX Z (ip), vehicle: saline): 108 % of control

CC(C)(C)C1COP(C)(=S)OC1 (stereo not given)
T/C (dose: 3.0 mg/kg/injection, schedule: Q01DX009 (ip), vehicle: Klucel (hydroxypropylcellulose) (HPC)): 102 % of control [survivor count not shown] | T/C (dose: 3.0 mg/kg/injection, schedule: Q04DX003 (ip), vehicle: Klucel (hydroxypropylcellulose) (HPC)): 100 % of control [survivor count not shown] | T/C (dose: 6.0 mg/kg/injection, schedule: Q01DX009 (ip), vehicle: Klucel (hydroxypropylcellulose) (HPC)): 101 % of control [survivor count not shown] | T/C (dose: 6.0 mg/kg/injection, schedule: Q04DX003 (ip), vehicle: Klucel (hydroxypropylcellulose) (HPC)): 101 % of control [survivor count not shown] | T/C (dose: 12.0 mg/kg/injection, schedule: Q01DX009 (ip), vehicle: Klucel (hydroxypropylcellulose) (HPC)): 104 % of control [survivor count not shown] | T/C (dose: 12.0 mg/kg/injection, schedule: Q04DX003 (ip), vehicle: Klucel (hydroxypropylcellulose) (HPC)): 95 % of control [survivor count not shown] | T/C [1]: 106 % of control [survivor count not shown]

CCOC(=O)CF
T/C (dose: 10.0 mg/kg/injection, schedule: Q01DX001 (ip), vehicle: acetone): 114 % of control [5 of 6 alive] | survivor count (dose: 20.0 mg/kg/injection, schedule: Q01DX001 (ip), vehicle: acetone): 0 of 6 | survivor count (dose: 40.0 mg/kg/injection, schedule: Q01DX001 (ip), vehicle: acetone): 0 of 6 | survivor count (dose: 75.0 mg/kg/injection, schedule: Q01DX001 (ip), vehicle: saline): 1 of 6 | survivor count (dose: 150.0 mg/kg/injection, schedule: Q01DX001 (ip), vehicle: saline): 0 of 6 | survivor count (dose: 300.0 mg/kg/injection, schedule: Q01DX001 (ip), vehicle: saline): 0 of 6

C=CS(=O)(=O)C=C
survivor count [2]: 0 of 6 | survivor count [3]: 0 of 6 | survivor count [4]: 0 of 6

CC(=O)CC(=O)OC1CN2CCC1CC2 (stereo not given)
T/C [5]: 96 % of control | T/C [6]: 96 % of control | T/C [7]: 93 % of control [2 of 3 alive]

CN1CCOS(=O)(=O)O1
T/C [8]: 92 % of control | T/C [9]: 92 % of control | T/C [10]: 92 % of control

O=C(CC(=O)c1ccccc1)OC1CN2CCC1CC2 (stereo not given)
T/C [5]: 96 % of control | T/C [6]: 98 % of control [2 of 3 alive] | T/C [7]: 98 % of control [2 of 3 alive]

CC(C)P1(=S)OCC(C(C)(C)C)CO1 (stereo not given)
T/C [1]: 100 % of control [survivor count not shown] | T/C (dose: 25.0 mg/kg/injection, schedule: Q04DX003 (ip), vehicle: Klucel (hydroxypropylcellulose) (HPC)): 100 % of control [survivor count not shown] | T/C (dose: 50.0 mg/kg/injection, schedule: Q04DX003 (ip), vehicle: Klucel (hydroxypropylcellulose) (HPC)): 98 % of control [survivor count not shown]

[C-]#N.[C-]#N.[C-]#N.[C-]#N.[Fe+6].[N-]=CC1CCCC[N-]1 (stereo not given)
T/C (dose: 75.0 mg/kg/injection, schedule: Q04DX002 (ip), vehicle: saline): 89 % of control | T/C (dose: 150.0 mg/kg/injection, schedule: Q04DX002 (ip), vehicle: saline): 92 % of control | T/C (dose: 300.0 mg/kg/injection, schedule: Q04DX002 (ip), vehicle: saline): 95 % of control

CN(C)C(=O)OCC[n+]1cccc(OC(=O)N(C)C)c1
survivor count [9]: 0 of 6 | survivor count [10]: 0 of 6 | survivor count (dose: 400.0 mg/kg/injection, schedule: Q01DX009 (ip), vehicle: saline): 0 of 6

COC(=O)/C=C/N(CCF)CCCl
survivor count (dose: 10.0 mg/kg/injection, schedule: Q01DX Z (ip), vehicle: other): 2 of 6 | survivor count (dose: 30.0 mg/kg/injection, schedule: Q01DX Z (ip), vehicle: other): 0 of 6 | survivor count (dose: 100.0 mg/kg/injection, schedule: Q01DX Z (ip), vehicle: other): 0 of 6 | survivor count (dose: 300.0 mg/kg/injection, schedule: Q01DX Z (ip), vehicle: other): 0 of 6

O=[N+]([O-])c1cccc(O)c1[N+](=O)[O-]
T/C (dose: 50.0 mg/kg/injection, schedule: Q01DX009 (ip), vehicle: other): 92 % of control | T/C (dose: 100.0 mg/kg/injection, schedule: Q01DX009 (ip), vehicle: other): 92 % of control | survivor count (dose: 200.0 mg/kg/injection, schedule: Q01DX009 (ip), vehicle: other): 6 of 6

F[As-](F)(F)(F)(F)F.c1ccc([As+](c2ccccc2)(c2ccccc2)c2ccccc2)cc1
T/C (dose: 100.0 mg/kg/injection, schedule: Q04DX002 (ip), vehicle: Klucel (hydroxypropylcellulose) (HPC)): 118 % of control | T/C (dose: 200.0 mg/kg/injection, schedule: Q04DX002 (ip), vehicle: Klucel (hydroxypropylcellulose) (HPC)): 115 % of control | T/C (dose: 400.0 mg/kg/injection, schedule: Q04DX002 (ip), vehicle: Klucel (hydroxypropylcellulose) (HPC)): 115 % of control

S=P(Cl)(Cl)c1ccc(Cl)cc1
T/C (dose: 12.5 mg/kg/injection, schedule: Q01DX009 (ip), vehicle: saline with Tween-80): 95 % of control | T/C (dose: 25.0 mg/kg/injection, schedule: Q01DX009 (ip), vehicle: saline with Tween-80): 95 % of control | T/C (dose: 50.0 mg/kg/injection, schedule: Q01DX009 (ip), vehicle: saline with Tween-80): 95 % of control | T/C [2]: 88 % of control | survivor count [3]: 3 of 6 | survivor count [4]: 0 of 6

COP(=O)(Cl)N(CCCl)CCCl (stereo not given)
T/C (dose: 75.0 mg/kg/injection, schedule: Q01DX001 (ip), vehicle: DMSO): 110 % of control [5 of 6 alive] | T/C (dose: 150.0 mg/kg/injection, schedule: Q01DX001 (ip), vehicle: DMSO): 87 % of control [5 of 6 alive] | T/C (dose: 300.0 mg/kg/injection, schedule: Q01DX001 (ip), vehicle: DMSO): 103 % of control [4 of 6 alive]

O=[N+]([O-])OCC1CO1 (stereo not given)
T/C (dose: 12.5 mg/kg/injection, schedule: Q01DX009 (ip), vehicle: saline): 95 % of control [survivor count not shown] | T/C (dose: 25.0 mg/kg/injection, schedule: Q01DX009 (ip), vehicle: saline): 106 % of control [survivor count not shown] | T/C [8]: 96 [survivor count not shown] and 123 % of control [survivor count not shown] | T/C [9]: 90 [survivor count not shown] and 93 % of control [survivor count not shown] | T/C [10]: 97 % of control [survivor count not shown]
